These are yes or no findings as the source states them, for the method shown. In cells and extracts the contact can be indirect. Some binding calls cover weakened binding; strength is not graded here. Where a sequence is shown, tags or fusion partners need not be part of it.
T1: GFP-RZ-1C (Arabidopsis thaliana) (UniProt Q8RWN5)
T1 sequence: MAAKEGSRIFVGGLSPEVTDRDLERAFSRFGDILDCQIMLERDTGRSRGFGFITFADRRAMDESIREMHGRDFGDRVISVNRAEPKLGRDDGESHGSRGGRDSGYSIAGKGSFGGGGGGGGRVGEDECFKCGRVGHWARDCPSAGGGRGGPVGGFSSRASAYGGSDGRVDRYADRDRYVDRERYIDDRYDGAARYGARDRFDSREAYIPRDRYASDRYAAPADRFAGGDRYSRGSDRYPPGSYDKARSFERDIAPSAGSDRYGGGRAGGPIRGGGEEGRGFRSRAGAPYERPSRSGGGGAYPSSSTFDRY

Protein sequences, listed by entry. Tags and fused reporters are not part of them.
UniProt O22467: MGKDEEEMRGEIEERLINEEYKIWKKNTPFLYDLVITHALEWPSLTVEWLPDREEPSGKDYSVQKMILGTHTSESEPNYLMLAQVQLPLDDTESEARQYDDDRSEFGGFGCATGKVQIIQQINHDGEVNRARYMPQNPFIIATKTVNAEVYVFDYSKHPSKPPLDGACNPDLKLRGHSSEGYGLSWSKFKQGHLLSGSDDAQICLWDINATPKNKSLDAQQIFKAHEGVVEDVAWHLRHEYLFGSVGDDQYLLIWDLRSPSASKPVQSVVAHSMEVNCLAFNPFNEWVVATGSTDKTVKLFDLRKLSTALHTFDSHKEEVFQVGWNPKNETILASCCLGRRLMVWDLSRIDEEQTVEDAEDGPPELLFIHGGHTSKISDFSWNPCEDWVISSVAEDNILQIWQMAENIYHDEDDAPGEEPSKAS

B1: HDA19-3×FLAG (enzyme, UniProt O22446 1-501)
chain: MDTGGNSLASGPDGVKRKVCYFYDPEVGNYYYGQGHPMKPHRIRMTHALLAHYGLLQHMQVLKPFPARDRDLCRFHADDYVSFLRSITPETQQDQIRQLKRFNVGEDCPVFDGLYSFCQTYAGGSVGGSVKLNHGLCDIAINWAGGLHHAKKCEASGFCYVNDIVLAILELLKQHERVLYVDIDIHHGDGVEEAFYATDRVMTVSFHKFGDYFPGTGHIQDIGYGSGKYYSLNVPLDDGIDDESYHLLFKPIMGKVMEIFRPGAVVLQCGADSLSGDRLGCFNLSIKGHAECVKFMRSFNVPLLLLGGGGYTIRNVARCWCYETGVALGVEVEDKMPEHEYYEYFGPDYTLHVAPSNMENKNSRQMLEEIRNDLLHNLSKLQHAPSVPFQERPPDTETPEVDEDQEDGDKRWDPDSDMDVDDDRKPIPSRVKREAVEPDTKDKDGLKGIMERGKGCEVEVDESGSTKVTGVNPVGVEEASVKMEEEGTNKGGAEQAFPPKT
B2: AL2-3×FLAG (protein, UniProt Q9SRM4 1-246)
chain: MAAAAVSSNPRTVEEIFKDYSARRAALLRALTKDVDDFYSQCDPEKENLCLYGHPNESWEVNLPAEEVPPELPEPALGINFARDGMQRKDWLSLVAVHSDCWLLSVSFYFGARLNRNERKRLFSLINDLPTLFDVVTGRKAMKDNKPSSDSGSKSRNGTKRSIDGQTKSSTPKLMEESYEEEEEEDEHGDTLCGSCGGHYTNEEFWICCDVCERWYHGKCVKITPAKAESIKQYKCPPCCAKKGRQ

biological target: T1, GFP-RZ-1C (Arabidopsis thaliana); assay: co-IP

binding, binds:
MSI1-3×FLAG (from UniProt O22467 1-424), B1, B2
